These are yes or no findings as the source states them, for the method shown. Binding seen in cells or lysates may run through a third protein. Here binding means that the protein was enriched with, or labelled near, the bait; the list need not be complete. For some of these results: No binding means not detected with the bait. For some of these results: Where a sequence is shown, tags or fusion partners need not be part of it.

In assay [1] the target is T1, NtMatK-HA (Nicotiana tabacum) (UniProt P12176).
T1 sequence: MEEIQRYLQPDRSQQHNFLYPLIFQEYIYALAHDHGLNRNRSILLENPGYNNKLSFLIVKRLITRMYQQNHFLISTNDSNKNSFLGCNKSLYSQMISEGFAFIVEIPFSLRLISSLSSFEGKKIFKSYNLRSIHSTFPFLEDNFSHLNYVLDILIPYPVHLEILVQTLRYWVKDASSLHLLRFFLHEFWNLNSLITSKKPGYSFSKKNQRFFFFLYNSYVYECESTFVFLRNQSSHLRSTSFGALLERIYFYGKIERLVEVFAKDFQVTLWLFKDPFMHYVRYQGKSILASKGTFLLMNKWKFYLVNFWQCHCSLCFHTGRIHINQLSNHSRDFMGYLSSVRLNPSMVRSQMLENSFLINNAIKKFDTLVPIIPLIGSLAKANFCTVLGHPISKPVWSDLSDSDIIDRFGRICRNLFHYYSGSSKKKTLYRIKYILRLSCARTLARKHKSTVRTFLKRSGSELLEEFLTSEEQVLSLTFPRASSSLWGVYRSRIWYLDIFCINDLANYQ
Kind of assay: affinity purification with mass spectrometry; anti-HA IP from 10-day-old NtMatK C+ tobacco seedlings, NtMatK C- as control, without RNase treatment; on-bead digest.

Assay [2] addresses AtMKIP1-YFP (Arabidopsis thaliana). Kind of assay: affinity purification with mass spectrometry; anti-YFP IP (µMACS magnetic beads) from soluble proteins of mature rosettes of P35S:AtMKIP1-YFP Arabidopsis, Col-0 as control; three independent experiments.

Regarding NtValRS2, in assay [1], the binding result was “binds”.

For NtRNC1, in assay [1], the binding result is recorded as “binds weakly”.

For NtMKIP1, the binding entry in assay [1] is on record as “binds”.

With chaperonin-60 α (tobacco, plastidial), in assay [1], the binding result is listed as “binds weakly”.

As for chaperonin-60 β (tobacco, plastidial), the binding entry in assay [1] was “binds weakly”.

Turning to NtEMB3120, the binding entry in assay [1] was “binds”.

B1: RNC1 (Arabidopsis) (protein, UniProt Q9SZV0 52-537)
chain: ASVTAETQGLPRDSPQRLLKELAQRKTATGPKKKVPPKRFILRPPLDDKKLAERFLNSPQLSLKSFPLLSSCLPSSKLNNADKTWIDEYLLEVKQALGYSLEPSESLGDDNPAKHFDTLLYLAFQHPSCDRARARHVKNGHSRLWFLGQYVLELALTEFFLQRYPRESPGPMRERVFALIGKRYLPKWIKAASLQNLIFPYDDMDKLIRKEREPPVKSVFWALFGAIYLCFGMPEVYRVLFEVFGMDPDADECQPRSRRQLEDVDYVSVEFEGKKLGWQDIATYKPPEDALFAHPRLFRACVPPGMHRFRGNIWDFDSKPKVMQTLGYPLTMNDRIKEITEARNIELGLGLQLCFLHPSKHKFEHPRFCFERLEYVGQKIQDIAMAERLLMKHLDAPGKWLQEKHRRLLMNKFCGRYLREKRLHNFIIYSEEVHDRYEHNRRLRNPATTAVQQAIHGLAYTIYGKPDVRRLMFEVFDFEQIQPKAV
Consider B1, for which, in assay [2], the binding result was “no binding”.

The record behind these values is publication PMC13172542.
